This is an account of results in article PMC7519109.

The chains behind the UniProt entries cited, without tags or fusion partners. Residues count along the entry.
UniProt P37173, residues 23-567: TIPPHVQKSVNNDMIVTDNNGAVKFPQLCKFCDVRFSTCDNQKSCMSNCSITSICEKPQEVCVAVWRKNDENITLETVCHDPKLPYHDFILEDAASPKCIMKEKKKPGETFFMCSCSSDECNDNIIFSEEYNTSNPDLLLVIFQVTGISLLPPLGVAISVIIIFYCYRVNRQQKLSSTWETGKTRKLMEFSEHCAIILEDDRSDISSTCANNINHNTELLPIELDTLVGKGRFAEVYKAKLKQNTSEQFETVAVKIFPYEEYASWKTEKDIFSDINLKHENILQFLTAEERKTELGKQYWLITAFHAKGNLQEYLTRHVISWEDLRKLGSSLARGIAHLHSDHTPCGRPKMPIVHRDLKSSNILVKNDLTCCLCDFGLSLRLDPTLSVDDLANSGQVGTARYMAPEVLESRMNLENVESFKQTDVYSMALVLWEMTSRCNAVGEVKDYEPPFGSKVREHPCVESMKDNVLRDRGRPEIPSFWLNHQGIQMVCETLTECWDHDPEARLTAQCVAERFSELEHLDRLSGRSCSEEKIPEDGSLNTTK

The assay concerns the target T1, FLAG-OTUD4 (human) (UniProt Q01804).
T1 sequence: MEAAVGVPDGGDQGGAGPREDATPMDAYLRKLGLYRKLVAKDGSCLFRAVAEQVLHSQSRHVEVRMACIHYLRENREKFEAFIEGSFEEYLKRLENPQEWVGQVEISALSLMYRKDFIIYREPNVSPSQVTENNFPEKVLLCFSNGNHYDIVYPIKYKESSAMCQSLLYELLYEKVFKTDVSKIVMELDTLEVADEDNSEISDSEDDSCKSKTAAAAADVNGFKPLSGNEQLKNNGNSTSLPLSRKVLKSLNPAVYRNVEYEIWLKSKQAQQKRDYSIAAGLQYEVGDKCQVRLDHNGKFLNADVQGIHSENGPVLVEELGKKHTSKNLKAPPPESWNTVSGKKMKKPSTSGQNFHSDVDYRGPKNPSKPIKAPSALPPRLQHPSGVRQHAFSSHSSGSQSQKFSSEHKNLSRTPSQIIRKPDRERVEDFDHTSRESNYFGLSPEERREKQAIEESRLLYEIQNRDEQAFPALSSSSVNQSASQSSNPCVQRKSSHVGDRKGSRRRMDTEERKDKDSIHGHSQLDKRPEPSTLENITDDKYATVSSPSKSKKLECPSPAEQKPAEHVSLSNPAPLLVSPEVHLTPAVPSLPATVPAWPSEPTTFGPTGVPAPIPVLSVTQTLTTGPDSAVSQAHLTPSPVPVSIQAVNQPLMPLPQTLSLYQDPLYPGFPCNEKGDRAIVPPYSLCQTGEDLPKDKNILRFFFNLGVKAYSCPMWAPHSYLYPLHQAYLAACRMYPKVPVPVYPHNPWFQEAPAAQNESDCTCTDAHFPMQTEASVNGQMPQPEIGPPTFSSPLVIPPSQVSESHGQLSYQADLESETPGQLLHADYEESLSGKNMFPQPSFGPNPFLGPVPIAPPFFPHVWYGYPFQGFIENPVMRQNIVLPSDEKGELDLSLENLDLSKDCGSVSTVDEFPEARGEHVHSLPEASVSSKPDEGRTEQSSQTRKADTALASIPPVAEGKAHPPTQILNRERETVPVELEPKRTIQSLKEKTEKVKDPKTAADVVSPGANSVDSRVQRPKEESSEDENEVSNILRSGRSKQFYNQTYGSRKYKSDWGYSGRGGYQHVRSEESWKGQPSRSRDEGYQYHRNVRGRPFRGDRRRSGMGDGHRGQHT
The assay is described as follows: co-IP; HEK293T cells co-transfected; lysed after 48 h in ELB (0.25 M NaCl, 0.5% NP-40, 50 mM HEPES pH 7.3); lysate incubated overnight with antibody (anti-TβRI or anti-OTUD4), protein A or G sepharose, three washes in ELB; Western blot. On the technique in general: A western blot detects proteins with antibodies after separation by electrophoresis.

These are yes or no findings as the source states them, for the method shown. In cells and extracts the contact can be indirect. Some results given as binding are weak or reduced against the parent protein; the word gives no strength. Tags and fused reporters may be left off the sequences shown.

As to “TGFβ receptor II (from UniProt P37173 23-567)”, the binding result is “binds”.
